The values that follow come from article PMC3292467, “Comparison between ^68Ga-bombesin (^68Ga-BZH3) and the cRGD tetramer ^68Ga-RGD4 studies in an experimental nude rat model with a neuroendocrine pancreatic tumor cell line” (EJNMMI Research, 2011).

Molecules are shown by their SMILES. Several values for one entry are separate records, joined by “and”; a condition that tells them apart may be missing. Identical values can stand only once. Square brackets hold non-standard residues; d marks the D form. Peptide text beside a SMILES is read from it. * marks the point of attachment. DOTA = O=C(O)CN1CCN(CC(=O)O)CCN(CC(=O)*)CCN(CC(=O)O)CC1; 2Thi = N[C@@H](Cc1cccs1)C(=O)O; Nle = CCCC[C@H](N)C(=O)O; AEEA = NCCOCCOCC(=O)O; βAla = NCCC(=O)O

This data set has as its system AR42J tumor. In words: Fractal dimension, non-compartmental analysis of dynamic PET time-activity data, AR42J tumor. The following applies: subdivision 7 × 7, maximal SUV 20, scale 0 to 2, n = 5 (BZH3), n = 4 (RGD4). Format: in vivo, rat.

As to `CCCC[C@H](NC(=O)[C@H](Cc1cccs1)NC(=O)[C@H](Cc1c[nH]cn1)NC(=O)CCNC(=O)[C@@H](NC(=O)[C@H](C)NC(=O)[C@H](Cc1c[nH]c2ccccc12)NC(=O)[C@H](CCC(N)=O)NC(=O)[C@@H](Cc1ccc(O)cc1)NC(=O)COCCOCCNC(=O)COCCOCCNC(=O)CN1CCN(CC(=O)O)CCN(CC(=O)O)CCN(CC(=O)O)CC1)C(C)C)C(N)=O` [^68Ga-BZH3, DOTA-PEG2-[D-Tyr^6 -β-Ala^11 -Thi^13 -Nle^14]BN(6-14) amide, metal not drawn] ({DOTA-AEEA-AEEA}-[dY]QWAV[βAla]H[2Thi][Nle]-NH2), the “FD (fractal dimension)” value was 1.1495 (maximum); 1.1198 (mean); 1.142 and 1.1425 (median, between tracers P 0.0275*); 1.0665 (minimum).
